# Read-outs that look alike come from different tables or passages of the source. At least one compound was matched to its structure with a doubt left. Starred links: 1 amine or outer side, 2 acyl side, 3 side chain; linkers in the order of their positions; H or OH if unused. Positions of bridges follow the written chain, without caps; N, C: chain ends. Non-standard residues stand in square brackets, D forms with d. Residues, ends and D or L forms follow the SMILES beside them. *: point of attachment. Leu(3R-OH,Nα-propionyl) = CCC(=O)N[C@H](C(=O)*)[C@H](O)C(C)C; X1 = CC(C)[C@@H](O[*:3])[C@H](N[*:1])C(=O)[*:2]; NMeT = CN[C@H](C(=O)O)[C@@H](C)O; dPhLac = O=C(O)[C@H](O)Cc1ccccc1; NMeA = CN[C@@H](C)C(=O)O; NMeDha = C=C(NC)C(=O)O
# What was measured:
# [1] = test system: Gαq-mutant uveal melanoma xenografts; conditions: systemically administered; cited from earlier work
# [2] = test system: BRAF(V600E)-driven tumors; conditions: systemically administered; cited from earlier work
# [3] = test system: A375 skin melanoma cell line (homozygous BRAF V600E); assay: Cell proliferation assay (resazurin cell viability), A375 cell line; format: cell-based
# Description: (§1) Cell Proliferation Assays with Chromodepsins (compounds (A1) and 2-15): Cell line descriptions: 92.1—uveal melanoma cell line, derived from primary tumor, harboring heterozygous GNAQ Q209L mutation. Purchased from Sigma Aldrich. MP41 (CRL-3297) -uveal melanoma cell line, derived from primary tumor, harboring heterozygous GNA11 Q209L mutation. Purchased from ATCC. A375—skin melanoma cell line, harboring homozygous BRAF V600E mutation. Origin: Cancer Cell Line Encyclopedia (CCLE). SK-MEL-30—skin melanoma cell line, harboring heterozygous NRAS Q61K mutation. Origin: CCLE.
# (§2) Cells were cultured in 96-well plates in a total volume of 100 μL at 37° C., 5% CO2 and 95% relative humidity. All cell lines were cultured in RPMI Medium (RPMI 1640 w/o L-glutamine, Bioconcept ref. 1-41F01-I) except A375, DMEM medium (DMEM high glucose (4.5 g/L), Bioconcept, ref. 1-26F01-I), and supplemented with 10% FCS (Bioconcept, ref. 2-01F30-I). Two to three thousand cells were seeded in 96-well plates per well the night before they were treated with compounds (concentration range: from 260 nM to 0.036 nM with ⅓ dilution steps; for 7 the concentration range was increased from 10000 nM to 1.52 nM with ⅓ dilution steps). Cell viability was measured by addition of 10 ul of resazurin per well after 96 hours of treatment. Results were analyzed and plotted using GraphPad Prism 9.0.1.
# [4] = test system: 92.1 and MP41 cell lines (GNAQ/GNA11 mutant uveal melanoma); assay: Cell proliferation assays, potency ranking over both uveal melanoma lines; format: cell-based
# Description: The selective antiproliferative profile of the chromodepsins against GNAQ/GNA11 mutant cell lines is confirmed by the lack of activity against the A375 and SK MEL 30 cell lines that are independent from GNAQ/GNA11 signaling. The potency ranking using the 92.1 and MP41 cell lines is in good agreement with the previously SAR studies. […] These findings are in line with a recent report from Voss et al., highlighting the importance of the “lipophilic anchors” of compound (A1) at the residues varied in compounds 2 and 3, in context of binding kinetics and prolonged residence time on the target proteins. The retained potency of compound 4 indicates a promising exit vector for potential synthetic or biosynthetic modifications of the scaffold. […] The linearized depsipeptides compounds 5-7 lack any antiproliferative activity. […] Therefore, all compounds were characterized in a low efflux MCDK assay and determined their exposed polar surface areas (EPSA) in order to assess their passive cellular permeabilities. […]
# Cells were cultured in 96-well plates in a total volume of 100 μL at 37° C., 5% CO2 and 95% relative humidity. […] Cell viability was measured by addition of 10 ul of resazurin per well after 96 hours of treatment. Results were analyzed and plotted using GraphPad Prism 9.0.1.
# [5] = test system: SK-MEL-30 skin melanoma cell line (heterozygous NRAS Q61K); assay: Cell proliferation assay (resazurin cell viability), SK-MEL-30 cell line; format: cell-based
# Description: as §1, §2
smiles,measurement,setting,value
"C=C1C(=O)N[C@@H](C)C(=O)N(C)[C@@H](C)C(=O)N[C@@H]([C@H](OC(=O)[C@@H](NC(=O)CC)[C@H](O)C(C)C)C(C)C)C(=O)N(C)[C@@H]([C@@H](C)OC)C(=O)O[C@H](C(C)C)[C@H](NC(C)=O)C(=O)O[C@H](Cc2ccccc2)C(=O)N1C [Compound (A1), FR900359] (Ac-[X1][dPhLac][NMeDha]A[NMeA][X1](Leu(3R-OH,Nα-propionyl))[NMeT](Me); ester 1-C)",growth of Gαq-mutant uveal melanoma xenografts,[1],selectively inhibited the growth
same,effect on BRAF(V600E)-driven tumors,[2],no effect
same,growth of / activity against A375 cells (in words),[3],unaffected
same,GI50 / potency (in words),[4],sub-nM range
same,GI50 / potency (in words),[4]; listed as compound (A1),sub nM
same,growth of / activity against SK-MEL-30 cells (in words),[5],unaffected

# From US20240252668A1, “ANTIBODY DRUG CONJUGATES AND METHODS FOR MAKING THEREOF” (Novartis AG, priority 2021, published 2024)
